The list does not hold the whole screen: it covers a few groups of compounds. Not every dose and run of a compound is shown. T/C: endpoint of the treated group in % of that of the vehicle group. Where survival is the endpoint, the PubChem record calls one and a half times the control and up active, and a quarter to a half above the control has no call in these data; cut-offs in other NCI protocols can differ. Some entries show no survivor count and are marked so; the dose need not have been tolerated. Schedule codes are those of the source, taken here to give the interval after Q, in days (D) or hours (H), and the number of doses after X. Some entries hold several experiments; the results are listed from low to high.
Test system: CD2F1 mice, L1210 leukemia ip, survival T/C
Assay: NCI In Vivo Anticancer Drug Screen. Data for tumor model L1210 Leukemia (intraperitoneal) in CD2F1 (CDF1) mice
Settings: T/C endpoint: mean survival time, higher T/C = longer survival
Description: The antitumor activity of compounds was measured in mice bearing transplantable tumors. Survival or tumor size were measured and the results are expressed as the measurement made in the treated group (T) divided by the measurement made in the vehicle treated control group (C). The tumor model used in this assay is L1210 Leukemia (intraperitoneal) in CD2F1 (CDF1) mice

[1] = dose: 25.0 mg/kg/injection, schedule: Q01DX009 (ip), vehicle: saline with Tween-80

In the case of `O=C(CCN1CCC(OC(=O)C(O)(c2ccccc2)c2ccccc2)CC1)NCc1ccccc1`, the T/C [1] is reported as 100 % of control [survivor count not shown], the T/C (dose: 50.0 mg/kg/injection, schedule: Q01DX009 (ip), vehicle: saline with Tween-80) is reported as 98 % of control [survivor count not shown] and the T/C (dose: 100.0 mg/kg/injection, schedule: Q01DX009 (ip), vehicle: saline with Tween-80) is reported as 100 % of control [survivor count not shown].
In the case of `CC(C)N(CCOC(=O)C(O)(c1ccccc1)c1ccccc1)C(C)C`, the T/C (dose: 12.5 mg/kg/injection, schedule: Q04DX002 (ip), vehicle: saline with Tween-80) is reported as 102 % of control [survivor count not shown], the T/C (dose: 25.0 mg/kg/injection, schedule: Q01DX001 (ip), vehicle: saline with Tween-80) is reported as 96 % of control [survivor count not shown] and the T/C (dose: 25.0 mg/kg/injection, schedule: Q04DX002 (ip), vehicle: saline with Tween-80) is reported as 102 % of control [survivor count not shown]. The T/C (dose: 50.0 mg/kg/injection, schedule: Q01DX001 (ip), vehicle: saline with Tween-80) was 96 % of control [survivor count not shown], the T/C (dose: 50.0 mg/kg/injection, schedule: Q04DX002 (ip), vehicle: saline with Tween-80) was 113 % of control [survivor count not shown] and the T/C (dose: 100.0 mg/kg/injection, schedule: Q01DX001 (ip), vehicle: saline with Tween-80) was 104 [survivor count not shown] and 108 % of control [survivor count not shown]. For the same compound, the T/C (dose: 100.0 mg/kg/injection, schedule: Q04DX002 (ip), vehicle: saline with Tween-80) was 95 % of control [survivor count not shown].
In the case of `CN1CCC(OC(=O)C(OC(=O)C(O)(c2ccccc2)c2ccccc2)(c2ccccc2)c2ccccc2)CC1`, the T/C (dose: 75.0 mg/kg/injection, schedule: Q01DX001 (ip), vehicle: other) is reported as 101 % of control [survivor count not shown] and the T/C (dose: 150.0 mg/kg/injection, schedule: Q01DX001 (ip), vehicle: other) is reported as 101 % of control [survivor count not shown].
For `O=C(OCC1CCCN2CCCCC12)C(O)(c1ccccc1)c1ccccc1` (centres undefined), the T/C (dose: 6.25 mg/kg/injection, schedule: Q01DX009 (ip), vehicle: saline with Tween-80) was 96 % of control [survivor count not shown], the T/C (dose: 12.5 mg/kg/injection, schedule: Q01DX009 (ip), vehicle: saline with Tween-80) was 100 % of control [survivor count not shown] and the T/C [1] was 98 % of control [survivor count not shown].
With `ClCCCCC(CCl)NCCCl` (centres undefined) the T/C (dose: 12.5 mg/kg/injection, schedule: Q01DX007 (ip), vehicle: saline) was 120 % of control [survivor count not shown], the T/C (dose: 12.5 mg/kg/injection, schedule: Q01DX009 (ip), vehicle: saline) was 102 [survivor count not shown], 108 [survivor count not shown], 132 % of control [survivor count not shown] and the T/C (dose: 12.5 mg/kg/injection, schedule: Q03DX003 (ip), vehicle: saline) was 110 % of control [survivor count not shown]. For the same compound, the T/C (dose: 12.5 mg/kg/injection, schedule: Q04DX003 (ip), vehicle: saline) was 110 % of control [survivor count not shown], the T/C (dose: 25.0 mg/kg/injection, schedule: Q01DX007 (ip), vehicle: saline) was 142 % of control [survivor count not shown] and the T/C (dose: 25.0 mg/kg/injection, schedule: Q01DX009 (ip), vehicle: saline) was 112 [survivor count not shown], 148 [survivor count not shown], 154 % of control [survivor count not shown]. For the same compound, the T/C (dose: 25.0 mg/kg/injection, schedule: Q03DX003 (ip), vehicle: saline) was 125 % of control [survivor count not shown], the T/C (dose: 25.0 mg/kg/injection, schedule: Q04DX003 (ip), vehicle: saline) was 124 % of control [survivor count not shown] and the T/C (dose: 50.0 mg/kg/injection, schedule: Q01DX007 (ip), vehicle: saline) was 159 % of control [survivor count not shown]. For the same compound, the T/C (dose: 50.0 mg/kg/injection, schedule: Q01DX009 (ip), vehicle: saline) was 98 [survivor count not shown], 118 [survivor count not shown], 143 % of control [survivor count not shown], the T/C (dose: 50.0 mg/kg/injection, schedule: Q03DX003 (ip), vehicle: saline) was 139 % of control [survivor count not shown] and the T/C (dose: 50.0 mg/kg/injection, schedule: Q04DX003 (ip), vehicle: saline) was 153 % of control [survivor count not shown].
With `CC(C)(O)C#CCN(CCCl)CCCl` the T/C (dose: 12.5 mg/kg/injection, schedule: Q01DX001 (ip), vehicle: saline) was 105 % of control [survivor count not shown] and the T/C (dose: 25.0 mg/kg/injection, schedule: Q01DX001 (ip), vehicle: saline) was 94 % of control [survivor count not shown].

Source: PubChem BioAssay AID256 (DTP/NCI, 2004)
